From patent publication US10278971B2, “Fluorocyclopentenylcytosine methods of use” (Rexahn Pharmaceuticals, Inc., priority 2015, dated 2019)
Some of these results come from one statement about several compounds together.

Test system: PCFT
Assay: PCFT mediated transport of radiolabeled MTX
Format: cell-based, human
Conditions: CEM-MTX cells, 24 hr; RX-3117 29.6 μM; DAC positive control
Source text: In this study, the following cell lines were used: (1) CCRF-CEM cells and its MTX resistant variant CEM-MTX, characterized by a deficiency of the reduced folate carrier (RFC) (Jansen G., et al., JBC 273 (1998) 30189-30198). The PCFT gene in CEM cells is highly methylated. (Gonen N., et al., BBRC 376 (2008) 787-92.); (2) CEM cells cultured in RPMI medium with 10% fetal bovine serum (FBS); and (3) A549 and SW1573 non-small cell lung cancer (NSCLC) and A2780 ovarian cancer cell lines cultured in DMEM medium with 10% FBS.
MTX transport was measured using radiolabeled MTX in CEM wild type and CEM-MTX cell lines. CEM cells have a high RFC activity. CEM-MTX are completely deficient in RFC-mediated transport. CEM cells have a highly methylated PCFT transporter and a very low PCFT mediated transport (Gonen N., et al., BBRC 376 (2008) 787-92). MTX transport at pH 7.4 is predominantly RFC mediated and less than 2% by PCFT. Folic acid was used to inhibit PCFT mediated transport. […] CEM and CEM-MTX cells were exposed to 29.6 μM RX-3117 and to 0, 19 μM aza-CdR as a positive control. MTX transport was measured after 24 hr to the drugs in a 3 minutes uptake assay using 2 μM [3′,5,′7-3H]-MTX.

Compound | increase of PCFT mediated transport of MTX
Nc1ncn([C@H]2C[C@H](O)[C@@H](CO)O2)c(=O)n1 [DAC, 5-aza-2′-deoxycytidine, reference compound] | 10-11 fold
Nc1ccn([C@@H]2C(F)=C(CO)[C@@H](O)[C@H]2O)c(=O)n1 [RX-3117, 4-amino-1-((1S,4R,5S)-2-fluoro-4,5-dihydroxy-3-hydroxymethyl-cyclopent-2-enyl)-1H-pyrimidin-2-one] | 10-11 fold
